Test system: electrically stimulated guinea pig tracheal strips
Type: cell-based

## CC(C)[N+]1(C)[C@@H]2CC[C@H]1CC(OC(=O)C(CO)c1ccccc1)C2.[Br-] (stereo partly shown) [Ipratropium Br, ipratropium bromide]
  t1/5 offset: 6.5 min

Source: patent US8568699B2, “Soft anticholinergic zwitterions” (priority 2005, dated 2013)
